Measurements from paper PMC9601121.
Where a chain is given by its changes, count along the chain named. These are yes or no findings as the source states them, for the method shown. In cells and extracts the contact can be indirect. Some entries that bind do so weakly or less than the wild type. Where a sequence is shown, tags or fusion partners need not be part of it.

The chains behind the UniProt entries cited, without tags or fusion partners.
UniProt Q01628: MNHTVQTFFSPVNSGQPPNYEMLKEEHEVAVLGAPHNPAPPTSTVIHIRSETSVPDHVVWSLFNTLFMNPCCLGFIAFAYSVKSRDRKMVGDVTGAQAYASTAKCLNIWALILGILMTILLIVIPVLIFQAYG

Key:
[1] = molecular target: T1, 2XFlag-ZMPSTE24 (wild type) (human) (UniProt O75844); experiment: co-IP; HEK293T cotransfected with Myc-IFITM3 and Flag-ZMPSTE24, Flag-ZMPSTE24-E336A or vector; lysis in 50 mM HEPES pH 7.5, 150 mM NaCl, 1% Triton X-100; 100,000 x g supernatant; anti-FLAG M2 magnetic beads 2 h at 4°C; blots with anti-FLAG and anti-Myc
T1 sequence: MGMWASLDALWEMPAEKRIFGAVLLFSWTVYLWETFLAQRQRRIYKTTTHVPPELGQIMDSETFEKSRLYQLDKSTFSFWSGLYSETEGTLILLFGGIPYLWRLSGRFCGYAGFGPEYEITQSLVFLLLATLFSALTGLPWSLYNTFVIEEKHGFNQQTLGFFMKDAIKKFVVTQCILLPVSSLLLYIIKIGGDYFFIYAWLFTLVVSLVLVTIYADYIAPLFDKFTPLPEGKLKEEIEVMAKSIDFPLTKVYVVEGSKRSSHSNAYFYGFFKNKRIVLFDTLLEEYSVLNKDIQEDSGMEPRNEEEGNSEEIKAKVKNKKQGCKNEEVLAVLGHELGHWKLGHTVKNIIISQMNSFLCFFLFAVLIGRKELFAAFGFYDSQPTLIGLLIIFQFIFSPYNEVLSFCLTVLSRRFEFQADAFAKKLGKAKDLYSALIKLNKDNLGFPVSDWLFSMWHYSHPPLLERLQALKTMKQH

[2] = molecular target: T2, 2XFlag-ZMPSTE24-E336A (catalytically dead) (human) (UniProt O75844); experiment: as above
T2 sequence: T1 sequence with E336A

binding [1]: binds
binding [2]: binds
Substance: Myc-hIFITM3 (from UniProt Q01628 1-133)
